This note sets out measurements from PMC7028737.

Chains of the proteins cited; added tags and fusions are not shown. Lines headed by an entry give the natural chain unless they say otherwise; changes in a name come on top. A line that says so, or that is headed by a name, gives the form on record, which may keep a tag or linker.
FIR-FLAG (far-upstream element-binding protein (FUBP) 1-interacting repressor) (Q9UHX1, form named): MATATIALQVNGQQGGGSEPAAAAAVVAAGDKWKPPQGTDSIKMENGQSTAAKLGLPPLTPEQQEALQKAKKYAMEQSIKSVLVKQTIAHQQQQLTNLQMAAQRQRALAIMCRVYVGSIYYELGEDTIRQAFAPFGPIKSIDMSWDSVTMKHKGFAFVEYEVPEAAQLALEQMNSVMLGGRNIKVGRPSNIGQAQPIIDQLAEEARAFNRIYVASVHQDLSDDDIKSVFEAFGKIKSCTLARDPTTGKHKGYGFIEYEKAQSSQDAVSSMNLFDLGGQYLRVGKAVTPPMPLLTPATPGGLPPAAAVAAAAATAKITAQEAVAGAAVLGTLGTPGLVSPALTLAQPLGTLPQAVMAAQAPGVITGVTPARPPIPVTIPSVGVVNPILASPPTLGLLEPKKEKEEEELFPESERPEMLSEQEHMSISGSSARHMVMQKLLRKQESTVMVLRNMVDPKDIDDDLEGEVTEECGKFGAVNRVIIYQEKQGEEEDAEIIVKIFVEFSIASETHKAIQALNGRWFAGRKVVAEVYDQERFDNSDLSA

In test [1] the target is FIR-FLAG (far-upstream element-binding protein (FUBP) 1-interacting repressor) (human) (UniProt Q9UHX1). As to the kind of experiment: affinity purification with mass spectrometry; Flag-conjugated beads pull down of FIR-FLAG or FIRΔexon2-FLAG from HeLa cells, GeLC-MS / LC-MS; data first obtained with the cell systems of ref. 9 and re-evaluated here.
Another test has as its target FIRΔexon2-FLAG (human). Described as above.

These are yes or no findings as the source states them, for the method shown. In cells and extracts the contact can be indirect. A yes stands for co-enrichment or nearness to the bait. Other partners may have been found.

B1: Plastin-3 (protein, UniProt P13797 1-630)
chain: MDEMATTQISKDELDELKEAFAKVDLNSNGFICDYELHELFKEANMPLPGYKVREIIQKLMLDGDRNKDGKISFDEFVYIFQEVKSSDIAKTFRKAINRKEGICALGGTSELSSEGTQHSYSEEEKYAFVNWINKALENDPDCRHVIPMNPNTDDLFKAVGDGIVLCKMINLSVPDTIDERAINKKKLTPFIIQENLNLALNSASAIGCHVVNIGAEDLRAGKPHLVLGLLWQIIKIGLFADIELSRNEALAALLRDGETLEELMKLSPEELLLRWANFHLENSGWQKINNFSADIKDSKAYFHLLNQIAPKGQKEGEPRIDINMSGFNETDDLKRAESMLQQADKLGCRQFVTPADVVSGNPKLNLAFVANLFNKYPALTKPENQDIDWTLLEGETREERTFRNWMNSLGVNPHVNHLYADLQDALVILQLYERIKVPVDWSKVNKPPYPKLGANMKKLENCNYAVELGKHPAKFSLVGIGGQDLNDGNQTLTLALVWQLMRRYTLNVLEDLGDGQKANDDIIVNWVNRTLSEAGKSTSIQSFKDKTISSSLAVVDLIDAIQPGCINYDLVKSGNLTEDDKHNNAKYAVSMARRIGARVYALPEDLVEVKPKMVMTVFACLMGRGMKRV
As to B1, in test [1], the binding entry is “binds”.

B2: Isoform 1 of Synaptic glycoprotein SC2 (protein, UniProt Q9NZ01 1-308)
chain: MKHYEVEILDAKTREKLCFLDKVEPHATIAEIKNLFTKTHPQWYPARQSLRLDPKGKSLKDEDVLQKLPVGTTATLYFRDLGAQISWVTVFLTEYAGPLFIYLLFYFRVPFIYGHKYDFTSSRHTVVHLACICHSFHYIKRLLETLFVHRFSHGTMPLRNIFKNCTYYWGFAAWMAYYINHPLYTPPTYGAQQVKLALAIFVICQLGNFSIHMALRDLRPAGSKTRKIPYPTKNPFTWLFLLVSCPNYTYEVGSWIGFAIMTQCLPVALFSLVGFTQMTIWAKGKHRSYLKEFRDYPPLRMPIIPFLL
Turning to B2, the binding entry (in test [1]; with FIRΔexon2-FLAG (human)) was “binds” each time.

B3: Isoform 1 of Splicing factor, arginine/serine-rich 7 (protein, UniProt Q16629 1-238)
chain: MSRYGRYGGETKVYVGNLGTGAGKGELERAFSYYGPLRTVWIARNPPGFAFVEFEDPRDAEDAVRGLDGKVICGSRVRVELSTGMPRRSRFDRPPARRPFDPNDRCYECGEKGHYAYDCHRYSRRRRSRSRSRSHSRSRGRRYSRSRSRSRGRRSRSASPRRSRSISLRRSRSASLRRSRSGSIKGSRYFQSPSRSRSRSRSISRPRSSRSKSRSPSPKRSRSPSGSPRRSASPERMD
With B3, the binding result in test [1] is on record as “binds”.

B4: Myosin-Ie (protein, UniProt Q12965 1-1108)
chain: MGSKGVYQYHWQSHNVKHSGVDDMVLLSKITENSIVENLKKRYMDDYIFTYIGSVLISVNPFKQMPYFGEKEIEMYQGAAQYENPPHIYALADNMYRNMIIDRENQCVIISGESGAGKTVAAKYIMSYISRVSGGGTKVQHVKDIILQSNPLLEAFGNAKTVRNNNSSRFGKYFEIQFSPGGEPDGGKISNFLLEKSRVVMRNPGERSFHIFYQLIEGASAEQKHSLGITSMDYYYYLSLSGSYKVDDIDDRREFQETLHAMNVIGIFAEEQTLVLQIVAGILHLGNISFKEVGNYAAVESEEFLAFPAYLLGINQDRLKEKLTSRQMDSKWGGKSESIHVTLNVEQACYTRDALAKALHARVFDFLVDSINKAMEKDHEEYNIGVLDIYGFEIFQKNGFEQFCINFVNEKLQQIFIELTLKAEQEEYVQEGIRWTPIEYFNNKIVCDLIENKVNPPGIMSILDDVCATMHAVGEGADQTLLQKLQMQIGSHEHFNSWNQGFIIHHYAGKVSYDMDGFCERNRDVLFMDLIELMQSSELPFIKSLFPENLQADKKGRPTTAGSKIKKQANDLVSTLMKCTPHYIRCIKPNETKKPRDWEESRVKHQVEYLGLKENIRVRRAGYAYRRIFQKFLQRYAILTKATWPSWQGEEKQGVLHLLQSVNMDSDQFQLGRSKVFIKAPESLFLLEEMRERKYDGYARVIQKSWRKFVARKKYVQMREEASDLLLNKKERRRNSINRNFIGDYIGMEEHPELQQFVGKREKIDFADTVTKYDRRFKGVKRDLLLTPKCLYLIGREKVKQGPDKGLVKEVLKRKIEIERILSVSLSTMQDDIFILHEQEYDSLLESVFKTEFLSLLAKRYEEKTQKQLPLKFSNTLELKLKKENWGPWSAGGSRQVQFHQGFGDLAVLKPSNKVLQVSIGPGLPKNSRPTRRNTTQNTGYSSGTQNANYPVRAAPPPPGYHQNGVIRNQYVPYPHAPGSQRSNQKSLYTSMARPPLPRQQSTSSDRVSQTPESLDFLKVPDQGAAGVRRQTTSRPPPAGGRPKPQPKPKPQVPQCKALYAYDAQDTDELSFNANDIIDIIKEDPSGWWTGRLRGKQGLFPNNYVTKI
In the case of B4, the binding result in test [1] was “binds”.

B5: EF-hand domain-containing protein D1 (protein, UniProt Q9BUP0 1-239)
chain: MASEELACKLERRLRREEAEESGPQLAPLGAPAPEPKPEPEPPARAPTASADAELSAQLSRRLDINEGAARPRRCRVFNPYTEFPEFSRRLIKDLESMFKLYDAGRDGFIDLMELKLMMEKLGAPQTHLGLKSMIKEVDEDFDGKLSFREFLLIFHKAAAGELQEDSGLMALAKLSEIDVALEGVKGAKNFFEAKVQALSSASKFEAELKAEQDERKREEEERRLRQAAFQKLKANFNT
Regarding B5, the binding result in test [1] is “binds”.

B6: Isoform A of Phosphate carrier protein, mitochondrial (protein, UniProt Q00325 50-362)
chain: AVEEQYSCDYGSGRFFILCGLGGIISCGTTHTALVPLDLVKCRMQVDPQKYKGIFNGFSVTLKEDGVRGLAKGWAPTFLGYSMQGLCKFGFYEVFKVLYSNMLGEENTYLWRTSLYLAASASAEFFADIALAPMEAAKVRIQTQPGYANTLRDAAPKMYKEEGLKAFYKGVAPLWMRQIPYTMMKFACFERTVEALYKFVVPKPRSECSKPEQLVVTFVAGYIAGVFCAIVSHPADSVVSVLNKEKGSSASLVLKRLGFKGVWKGLFARIIMIGTLTALQWFIYDSVKVYFRLPRPPPPEMPESLKKKLGLTQ
As to B6, the binding entry (in test [1]; with FIRΔexon2-FLAG (human)) was “binds” throughout.

B7: Isoform 1 of Probable ATP-dependent RNA helicase DDX31 (protein, UniProt Q9H8H2 1-851)
chain: MAPDLASQRHSESFPSVNSRPNVILPGREGRREGLPPGGGTRGSLVPTRPVPPSPAPLGTSPYSWSRSGPGRGGGAGSSRVPRGVPGPAVCAPGSLLHHASPTQTMAAADGSLFDNPRTFSRRPPAQASRQAKATKRKYQASSEAPPAKRRNETSFLPAKKTSVKETQRTFKGNAQKMFSPKKHSVSTSDRNQEERQCIKTSSLFKNNPDIPELHRPVVKQVQEKVFTSAAFHELGLHPHLISTINTVLKMSSMTSVQKQSIPVLLEGRDALVRSQTGSGKTLAYCIPVVQSLQAMESKIQRSDGPYALVLVPTRELALQSFDTVQKLLKPFTWIVPGVLMGGEKRKSEKARLRKGINILISTPGRLVDHIKSTKNIHFSRLRWLVFDEADRILDLGFEKDITVILNAVNAECQKRQNVLLSATLTEGVTRLADISLHDPVSISVLDKSHDQLNPKDKAVQEVCPPPAGDKLDSFAIPESLKQHVTVVPSKLRLVCLAAFILQKCKFEEDQKMVVFFSSCELVEFHYSLFLQTLLSSSGAPASGQLPSASMRLKFLRLHGGMEQEERTAVFQEFSHSRRGVLLCTDVAARGLDLPQVTWIVQYNAPSSPAEYIHRIGRTARIGCHGSSLLILAPSEAEYVNSLASHKINVSEIKMEDILCVLTRDDCFKGKRWGAQKSHAVGPQEIRERATVLQTVFEDYVHSSERRVSWAKKALQSFIQAYATYPRELKHIFHVRSLHLGHVAKSFGLRDAPRNLSALTRKKRKAHVKRPDLHKKTQSKHSLAEILRSEYSSGMEADIAKVKKQNAPGEPGGRPLQHSLQPTPCFGRGKTLKWRKTQKGVQRDSKTSQKV
In the case of B7, the binding result in test [1] was “binds”.

B8: ATP-dependent RNA helicase DDX51 (protein, UniProt Q8N8A6 1-666)
chain: MALFYVARYPGPDAAAAAGPEGAEAGAHGRARALLERLQSRARERQQQREPAQTEAAASTEPATRRRRRPRRRRRVNDAEPGSPEAPQGKRRKADGEDAGAESNEEAPGEPSAGSSEEAPGEPSAGSSEEAPGERSTSASAEAAPDGPALEEAAGPLVPGLVLGGFGKRKAPKVQPFLPRWLAEPNCVRRNVTEDLVPIEDIPDVHPDLQKQLRAHGISSYFPVQAAVIPALLESAACGFLVGRGGYRPSDLCVSAPTGSGKTLAFVIPVVQALLSRVVCHIRALVVLPTKELAQQVSKVFNIYTDATPLRVSLVTGQKSLAKEQESLVQKTADGYRCLADIVVATPGRLVDHIDQTPGFSLQQLRFLIIDEADRMIDSMHQSWLPRVVAAAFQSEDPADPCALLQRRQAQAVTAASTCCPQMPLQKLLFSATLTQNPEKLQQLGLHQPRLFSTGLAHRGLEDTDGDGDSGKYAFPVGLTHHYVPCSLSSKPLVVLHLVLEMGFSRVLCFTNSRENSHRLFLLVQAFGGVDVAEFSSRYGPGQRRMILKQFEQGKIQLLISTDATARGIDVQGVELVVNYDAPQYLRTYVHRVGRTARAGKTGQAFTLLLKVQERRFLRMLTEAGAPELQRHELSSKLLQPLVPRYEEALSQLEESVKEERKQRAA
In the case of B8, the binding entry in test [1] is “binds”.

B9: Isoform 1 of 60 S ribosome subunit biogenesis protein NIP7 homolog (protein, UniProt Q9Y221 1-180)
chain: MRPLTEEETRVMFEKIAKYIGENLQLLVDRPDGTYCFRLHNDRVYYVSEKIMKLAANISGDKLVSLGTCFGKFTKTHKFRLHVTALDYLAPYAKYKVWIKPGAEQSFLYGNHVLKSGLGRITENTSQYQGVVVYSMADIPLGFGVAAKSTQDCRKVDPMAIVVFHQADIGEYVRHEETLT
B9: the binding entry in test [1] was “binds”.

B10: ADP/ATP translocase 3 (protein, UniProt P12236 1-298)
chain: MTEQAISFAKDFLAGGIAAAISKTAVAPIERVKLLLQVQHASKQIAADKQYKGIVDCIVRIPKEQGVLSFWRGNLANVIRYFPTQALNFAFKDKYKQIFLGGVDKHTQFWRYFAGNLASGGAAGATSLCFVYPLDFARTRLAADVGKSGTEREFRGLGDCLVKITKSDGIRGLYQGFSVSVQGIIIYRAAYFGVYDTAKGMLPDPKNTHIVVSWMIAQTVTAVAGVVSYPFDTVRRRMMMQSGRKGADIMYTGTVDCWRKIFRDEGGKAFFKGAWSNVLRGMGGAFVLVLYDELKKVI
Take B10: the binding result (in test [1]; in the test with FIRΔexon2-FLAG (human)) was “binds” throughout.

B11: Isoform Long of Transformer-2 protein homolog alpha (protein, UniProt Q13595 1-282)
chain: MSDVEENNFEGRESRSQSKSPTGTPARVKSESRSGSRSPSRVSKHSESHSRSRSKSRSRSRRHSHRRYTRSRSHSHSHRRRSRSRSYTPEYRRRRSRSHSPMSNRRRHTGSRANPDPNTCLGVFGLSLYTTERDLREVFSRYGPLSGVNVVYDQRTGRSRGFAFVYFERIDDSKEAMERANGMELDGRRIRVDYSITKRAHTPTPGIYMGRPTHSGGGGGGGGGGGGGGGGRRRDSYYDRGYDRGYDRYEDYDYRYRRRSPSPYYSRYRSRSRSRSYSPRRY
In the case of B11, the binding result (in test [1]; in the test with FIRΔexon2-FLAG (human)) was “binds” in each case.
